For the assay, the target named is Plasmodium falciparum Niemann-Pick Type C1-Related protein (PfNCR1) (Plasmodium falciparum) (UniProt Q8I266). Briefly: cryo-EM structure.

Results are given in words; binding and its absence hold for the method and conditions named.

B1: Plasmodium falciparum Niemann-Pick Type C1-Related protein (PfNCR1) (protein, UniProt Q8I266 1-1470)
chain: MFVKNFIHKLKELKQKSLDKFANLLYDYGGYVYDRPCTFIICSLICCLLLTCGFYFKEHEKDIYKLYSISNSYAYETNETINDFFYKSRRCFILVESNVNLLKPKILRELQKFEEGTKDIEVDLSEINECKTNSELPPEQSHVAKELYKTLIQRSEENLKSGKINGSLFDYSDLDENGKSVLSLAGKENNDDTLIEGDNKNDEETSANNNNNEDDNNEDDNNEDDNNEDDNNENDNNNNNEDDNNNDDDDDEDNEEEDEEKQKSLREKLYRKIYEMLKKKKENIVLDENNPNVNFTDYKDDVFYPYQYIPPMLIKADRCKLQNVFGDKNLNIDLREASDGLKKQITYTLEDICEKKYGDCNFSSLFLYYEKGNGYIDYPIKVDNLDFYVNRRTYKEMMFKGILGNMVYEKSGSKYIIKSANAIMTVIPLLNSHTYEPYALAYEKKLIDYVRFYNLDDIIQDEETNDDNDPFIRFHVFTDRSLEDEVDRISKIDNLTRLLLLIGVLLIFMYALFNNVTSVLYRSKPLCAVMGIFCGFLGFLSGSGFLYFLGVKSVPPAETVPFLVIGVGVDDVFVILNSYSLLFMVKDNKKRIQMCLKDSALAITVTTLTNIIAFLISAISPFYSICAFSLFTASSLFFGYLMVLTFLLSFLCIEAKLEKKKRNIFTGTFHLFRSIFMKSSKKNKKENKENNIHDDGDNDNDEKKKDLSLEVKNNEDDYENISIYEWIHNLYLFEESINKKKKNAALVYASNNGMSSNLNNVNEDGFPNPSKIVSMEDVKKRNIKKDDAYINKEDEEGGGYYNKDDNKKKDILGKKQKKNNNNVTLVSKKGEDNELDVYYENLDEKTNDKYKMNNIKSSKLKYDNDKKDGAIINNRPSSDEEYKEEKDKNKINILNDVFNDITIKPNENILLDRGDVIKSSGYDSSYNDLQSSSLPNPSSNEVLNKTTMVYNETDLKDNKKEIKSSKKNVKDIKKSDMIHDDTYDIINSNNKNILLSSNEINNNSNNTNKFNNNSTELATKDTQQFINGHDKNIYLLSSHDNALFYKYIYEEPKGNIGKYFRSLVKNYYVPFLSSRFGKTIVYIMFTIIIAMSIYGCTLMKKGIKYDKAFPVDSYVRRFTTAKIKYFPDFGDFIEVYYFDKHFINKYRGLEKNTKEAASSFLYSDLTDRQIMNSPKINKNVHWENTNLQEELINMHNTLESQEFVTSVANGFTFFLNKNKSSLRKENPQEFYEIFANWLKKDFVGNLFKNDFVFLNGKLVAWRFHYFQKNVDDSEISSKWLKACKQITKLENHNVQMVCFHLSSIFNETDESIIEVTLINLGITILTILVVTAYIIKGFYSCVIIALIIFLIDLCIFGFMCLCGITMNIISMVILVLSVGFSIDHTSHIVQAFSHSMGRTRDEKMKESLHLMIGPVLHSGLSTWFVISTLFFSNKDFTVIFFQTLSLVLFFSITFSSMFLPVLLSSFGPLH
modifications: N-linked N-acetylglucosamine (NAG) at N165 and N294
For the molecule B1, the binding result is given as “no binding (tested: 7 mg/ml)”.

For the origin of these results see article doi:10.1101/2024.09.30.615907.
